Patent US20150166647A1
Residue numbers refer to the chain shown, from its start. These are yes or no findings as the source states them, for the method shown. Some entries that bind do so weakly or less than the wild type. Each block holds one binder with its values, some of them ahead of it.

By UniProt entry, the sequences of proteins in these tests, tags left out. Where a name states a change or a piece, a line headed by the entry shows the natural chain unless it says otherwise.
UniProt P10147: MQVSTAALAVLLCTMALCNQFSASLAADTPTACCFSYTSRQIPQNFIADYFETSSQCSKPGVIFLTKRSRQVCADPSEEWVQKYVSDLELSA

How the values were obtained:
[1] = molecular target: human MIP-1α/CCL3 (human) (UniProt P10147); test: Binding (MSD)
[2] = molecular target: human MIP-1α/CCL3 (human) (UniProt P10147); test: ELISA, hybridoma supernatant
[3] = molecular target: human MIP-1α/CCL3 (human) (UniProt P10147); test: ELISA, hybridoma clone supernatant
[4] = molecular target: human MIP-1α/CCL3 (human) (UniProt P10147); test: MSD electrochemiluminescence, coated chemokine, purified antibody 3 µg/mL (FIG. 11)
CCL28 = molecular target: T1, CCL28; test: MSD electrochemiluminescence assay; chemokine coated at 1 µg/mL, 18V4F at 3 µg/mL; background = BSA
T1 sequence (chemokine): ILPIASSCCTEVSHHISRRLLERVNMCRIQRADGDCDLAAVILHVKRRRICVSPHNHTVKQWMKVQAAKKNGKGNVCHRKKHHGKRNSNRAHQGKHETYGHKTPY

CXCL16 = molecular target: T2, CXCL16; test: as above
T2 sequence (chemokine): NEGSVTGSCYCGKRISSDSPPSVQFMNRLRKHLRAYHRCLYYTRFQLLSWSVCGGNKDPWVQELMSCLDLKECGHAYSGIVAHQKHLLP

Eotaxin-3 = molecular target: T3, Eotaxin-3; test: as above
T3 sequence (chemokine): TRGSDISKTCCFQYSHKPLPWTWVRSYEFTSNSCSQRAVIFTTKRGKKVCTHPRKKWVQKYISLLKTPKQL

Fractalkine [5] = test: as above
IP-10 = molecular target: T4, IP-10; test: as above
T4 sequence (chemokine): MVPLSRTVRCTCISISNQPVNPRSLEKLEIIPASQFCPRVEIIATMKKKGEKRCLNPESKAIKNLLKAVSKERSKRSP

MCP-2 [6] = test: as above
MIG = molecular target: T5, MIG; test: as above
T5 sequence (chemokine): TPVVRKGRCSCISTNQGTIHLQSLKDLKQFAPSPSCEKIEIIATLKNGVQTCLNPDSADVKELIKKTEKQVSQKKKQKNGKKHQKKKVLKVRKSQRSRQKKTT

SLC = test: as above
Teck = molecular target: T6, Teck; test: as above
T6 sequence (chemokine): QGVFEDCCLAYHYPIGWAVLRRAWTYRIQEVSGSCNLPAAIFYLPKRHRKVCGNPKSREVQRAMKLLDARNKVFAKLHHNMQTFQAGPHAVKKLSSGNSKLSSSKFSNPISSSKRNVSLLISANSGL

[7] = molecular target: human MIP-1α/CCL3 (human) (UniProt P10147); test: as above
[8] = molecular target: human MIP-1α/CCL3 (human) (UniProt P10147); test: MSD electrochemiluminescence, coated chemokine, hybridoma supernatant (FIG. 12)
[9] = molecular target: human MIP-1α/CCL3 (human) (UniProt P10147); test: MSD electrochemiluminescence assay; chemokine coated at 1 µg/mL, 18P7E as unquantitated hybridoma supernatant; background = BSA
[10] = molecular target: human MIP-1α/CCL3 (human) (UniProt P10147); test: ELISA, purified antibody (FIG. 1) and original supernatant
[11] = molecular target: human MIP-1α/CCL3 (human) (UniProt P10147); test: MSD electrochemiluminescence, coated chemokine, purified antibody 3 µg/mL (FIG. 8)
Fractalkine [12] = test: MSD electrochemiluminescence assay; chemokine coated at 1 µg/mL, 3C12F at 3 µg/mL; background = BSA
MCP-2 [13] = test: as above
[14] = molecular target: human MIP-1α/CCL3 (human) (UniProt P10147); test: as above
[15] = molecular target: human MIP-1α/CCL3 (human) (UniProt P10147); test: ELISA with purified 3C12F on biotinylated or directly coated chemokine; antibody concentration not given
[16] = molecular target: human MIP-1α/CCL3 (human) (UniProt P10147); test: MSD electrochemiluminescence, coated chemokine, purified antibody 3 µg/mL (FIG. 10)
[17] = molecular target: human MIP-1α/CCL3 (human) (UniProt P10147); test: MSD electrochemiluminescence assay; chemokine coated at 1 µg/mL, 7D1G at 3 µg/mL; background = BSA
[18] = molecular target: human MIP-1α/CCL3 (human) (UniProt P10147); test: MSD electrochemiluminescence, coated chemokine, purified antibody 3 µg/mL (FIG. 9)
[19] = molecular target: human MIP-1α/CCL3 (human) (UniProt P10147); test: MSD electrochemiluminescence assay; chemokine coated at 1 µg/mL, 7D12A at 3 µg/mL; background = BSA

B2: monoclonal antibody 18P7E (antibody, V domains shown)
VH: QVQLKESGPGLVAPSQSLSITCTVSGFSLTGYGIHWVRQPPGKGLEWLGVIWPGGGTNYNSALMSRLNISKDNSKSQVFLKMNSLQTDDTAMYYCARGPLITTEVSMDYWGQGTSVTVSS
VL: QAVVTQESALTTSPGETVTLTCRSNTGAVTTSNYANWVQEKPDHLFTGLIGGTNNRAPGVPARFSGSLIGDKAALTITGAQTEDEAIYFCALWYSNHWVFGGGTKLTVLG
binding [1]: binds
binding [2]: binds
binding [3]: binds
binding [8]: binds
binding [9]: binds

B3: monoclonal antibody 3C12F (antibody, V domains shown)
VH: EVQLQQSGAELVKPGASVKLSCTASGFNIKDTYIHWVKQRPEQGLEWIGRIDPANGNTQYDPKFQGKATITADTSSNTAYLQLTSLTSEDTAVYYCARRWDYDYAMDYWGQGTSVTVSS
VL: DIQMTQSPASLSASVGETVTITCRGSGNIHNYLAWYQQKQGKSPQLLVYNAKTLADGVPSRFSGSGSGTQYSLKINSLQPEDFGSYYCQHFWSTPYTFGGGTKLEIK
binding [1]: binds
binding [10]: binds
binding [11]: binds
binding (Fractalkine [12]): no binding (tested: 3 µg/mL)
binding (MCP-2 [13]): no binding (tested: 3 µg/mL)
binding [14]: binds
binding [15]: binds

B4: monoclonal antibody 7D1G (antibody, V domains shown)
VH: QVQLQQPGAELVKPGASVKMSCKASGYTFTSYNIHWVKQTPGQGLEWIGAVSPRNGDTSYNQRFKGKATLTADISSSTAYMQLSSLTSEDSAVYYCARGYGYDYWGQGTTLTVSS
VL: DVVLTQSPATLSVTPGDRVSLSCRASQSVSKYLHWYQQKSHESPRLLIKYVSQSISGIPSRFSGSGSGTDFTLSINSVETEDLGMYFCQQSNSWPHTFGAGTKLELK
binding [1]: binds
binding [2]: binds
binding [16]: binds
binding [17]: binds

Now from value to binder:

binding [1]: binds
binding [2]: binds
binding [3]: binds
binding [4]: binds
binding (CCL28): no binding (tested: 3 µg/mL)
binding (CXCL16): no binding (tested: 3 µg/mL)
binding (Eotaxin-3): no binding (tested: 3 µg/mL)
binding (Fractalkine [5]): no binding (tested: 3 µg/mL)
binding (IP-10): no binding (tested: 3 µg/mL)
binding (MCP-2 [6]): no binding (tested: 3 µg/mL)
binding (MIG): no binding (tested: 3 µg/mL)
binding (SLC): no binding (tested: 3 µg/mL)
binding (Teck): no binding (tested: 3 µg/mL)
binding [7]: binds
B1: monoclonal antibody 18V4F (antibody, V domains shown)
VH: B2 VH with N68S
VL: B2 VL

binding [1]: binds
binding [2]: binds
binding [18]: binds
binding [19]: binds
B5: monoclonal antibody 7D12A (antibody, V domains shown)
VH: EVHLQESGPSLVKPSQTLSLTCSVTGDSITNGYWNWIRKFPGNKLDYMGYISYDGNTYYNPSLKSRFSITRDTSKNQYYLQLNSVTTEDTATYYCSRGDYGTYVMDYWGQGTSVTVSS
VL: NIVLTQSPVSLAVSLGQRATISCRASESVDSHGNSFMHWYQQKPGQPPKLLIYLASNLESGVPARFTGGGSGSDFTLTIDPVEADDVGTYYCQQNNEDPYTFGGGTKLEIK
